Measurements reported in PubChem BioAssay AID493246 (Drosophila RNAi Screening Center, 2011).
Aim: 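Genome-wide search for dsRNAs that reduce cell number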 (primary screen). Cell system: Drosophila Kc and S2R+ cells. Reagent: long dsRNA against Drosophila genes. Measured: 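Raw, unnormalised count of remaining cells in each well; per-plate z-scores of cell number underlie the calls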. Direction: Kc cell number and S2R+ cell number: higher = more cells remaining. Active means: 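Counted as a hit if cell number falls by a z-score of at least 3 within its plate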.
In all, the deposit lists about 21,000 reagents; shown is an unselected part of those that have a named target and a result. Over the whole deposit, 429 (2%) got an active call. 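Values are raw and not normalised between plates; calls rest on per-plate z-scores that were not deposited.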 Names joined by + are all predicted targets of the reagent. Reagent sequences are not shown. Not given: the amount of reagent, the time to read-out.

no.	gene	PubChem SID	Kc cell number, rep 1	Kc cell number, rep 2	S2R+ cell number, rep 1	S2R+ cell number, rep 2	Call
1	CG10864	SID104194065	1.18e6	1.14e6	1.08e6	1.16e6	inactive
2	Hinfp (Histone H4 transcription factor)	SID104198276	1.45e6	1.50e6	1.00e6	1.09e6	inactive
3	enc (encore)	SID104188508	1.23e6	1.28e6	1.00e6	1.22e6	inactive
4	aft (adrift)	SID104187368	1.29e6	1.34e6	1.14e6	1.19e6	inactive
5	CG14852	SID104194768	1.51e6	1.59e6	1.06e6	1.22e6	inactive
6	Rab7	SID104196602	1.51e6	1.50e6	1.15e6	1.23e6	inactive
7	Nedd4	SID104191026	1.54e6	1.59e6	1.17e6	1.36e6	inactive
8	Gyc89Db (Guanylyl cyclase at 89Db)	SID104194801	1.70e6	1.88e6	1.20e6	1.31e6	inactive
9	RluA-2 (RluA pseudouridine synthase 2)	SID104182731	1.27e6	1.46e6	1.24e6	1.31e6	inactive
10	Idgf4 (Imaginal disc growth factor 4)	SID104198467	1.50e6	1.42e6	1.07e6	1.18e6	inactive
11	CG14270	SID104197705	1.45e6	1.48e6	1.10e6	1.23e6	inactive
12	RacGAP84C (Rac GTPase activating protein at 84C)	SID104192422	1.61e6	1.68e6	1.37e6	1.48e6	inactive
13	CG32814	SID104197462	1.38e6	1.47e6	1.07e6	1.13e6	inactive
14	CG9953	SID104190898	1.77e6	1.72e6	1.15e6	1.14e6	inactive
15	CG7747	SID104186830	1.29e6	1.33e6	1.19e6	1.19e6	inactive
16	ND-B14.5A (NADH dehydrogenase (ubiquinone) B14.5 A subunit)	SID104198292	1.59e6	1.56e6	1.07e6	1.25e6	inactive
17	LKRSDH (Lysine ketoglutarate reductase/saccharopine dehydrogenase)	SID104182807	1.26e6	1.44e6	4.70e5	5.28e5	inactive
18	S (Star)	SID104180577	1.62e6	1.67e6	9.27e5	1.07e6	inactive
19	Cpr76Bd (Cuticular protein 76Bd)	SID104190855	1.42e6	1.75e6	1.25e6	1.39e6	inactive
20	CG43658	SID104199903	1.45e6	1.45e6	1.01e6	1.09e6	inactive
21	Hrs (Hepatocyte growth factor regulated tyrosine kinase substrate)	SID104180341	1.27e6	1.31e6	7.24e5	7.05e5	inactive
22	CG2519	SID104192104	1.61e6	1.67e6	1.19e6	1.29e6	inactive
23	CG5087	SID104190271	1.30e6	1.29e6	1.29e6	1.29e6	inactive
24	CG15024	SID104188270	1.60e6	1.46e6	1.07e6	1.19e6	inactive
25	Hr51 (Hormone receptor 51)	SID104186419	1.69e6	1.72e6	1.23e6	1.48e6	inactive
26	CG8545	SID104187002	1.45e6	1.56e6	9.48e5	1.08e6	inactive
27	CG31459	SID104193172	1.43e6	1.41e6	9.98e5	1.11e6	inactive
28	Dnaaf3 (Dynein axonemal assembly factor 3)	SID104186476	1.58e6	1.63e6	1.24e6	1.40e6	inactive
29	Kyat (Kynurenine aminotransferase)	SID104195939	1.62e6	1.67e6	1.26e6	1.40e6	inactive
30	trx (trithorax)	SID104196881	1.43e6	1.52e6	9.44e5	1.01e6	inactive
31	CG14183	SID104189974	1.55e6	1.59e6	1.35e6	1.34e6	inactive
32	Ir7f (Ionotropic receptor 7f)	SID104197804	1.51e6	1.49e6	1.04e6	1.12e6	inactive
33	CG12402	SID104194300	1.14e6	1.19e6	1.23e6	1.52e6	inactive
34	CG13722	SID104188123	1.61e6	1.52e6	1.18e6	1.23e6	inactive
35	scny (scrawny)	SID104190301	1.14e6	1.31e6	1.18e6	6.68e5	inactive
36	scny (scrawny)	SID104190302	1.53e6	1.56e6	1.03e6	1.08e6	inactive
37	CG6788	SID104199799	1.48e6	1.65e6	1.06e6	1.12e6	inactive
38	Nup160 + RfC38	SID104181789	1.26e6	1.33e6	1.09e6	1.13e6	inactive
39	arm (armadillo)	SID104198530	5.93e5		7.88e5		inactive
40	Syx1A (Syntaxin 1A)	SID104195151	1.38e6	1.46e6	8.82e5	1.07e6	inactive
41	CG13312	SID104189775	1.27e6	1.46e6	1.14e6	1.19e6	inactive
42	CG10804	SID104197556	5.60e5		8.37e5		inactive
43	CG33773	SID104193824	1.24e6	1.67e6	1.09e6	1.13e6	inactive
44	CG42449	SID104197876	1.28e6	1.37e6	1.02e6	1.13e6	inactive
45	alphaKap4 (alpha Karyopherin-4)	SID104189615	1.70e6	1.57e6	1.13e6	1.29e6	inactive
46	yellow-e	SID104192758	1.48e6	1.61e6	1.05e6	1.18e6	inactive
47	yellow-e	SID104196355	1.36e6	1.53e6	1.09e6	1.20e6	inactive
48	bab1 (bric a brac 1)	SID104188171	1.28e6	1.30e6	6.28e5	7.10e5	inactive
49	bab1 (bric a brac 1)	SID104188501	1.61e6	1.48e6	8.58e5	1.45e6	inactive
50	wg (wingless)	SID104183428	1.63e6	1.68e6	1.28e6	1.44e6	inactive
51	Galt (Galactose-1-phosphate uridylyltransferase)	SID104182953	1.27e6	1.27e6	6.05e5	7.25e5	inactive
52	DptB (Diptericin B)	SID104185793	1.74e6	1.65e6	1.21e6	1.41e6	inactive
53	Ugt35A1 (UDP-glycosyltransferase family 35 member A1)	SID104196684	1.60e6	1.66e6	1.43e6	1.53e6	inactive
54	CG7786	SID104186837	1.74e6	1.77e6	1.18e6	1.34e6	inactive
55	Fgop2 (Fibroblast growth factor receptor 1 oncogene partner 2)	SID104181808	1.17e6	1.23e6	5.54e5	6.95e5	inactive
56	Doa (Darkener of apricot)	SID104193684	1.33e6	1.56e6	1.06e6	1.11e6	inactive
57	Doa (Darkener of apricot)	SID104193685	1.33e6	1.47e6	1.06e6	1.07e6	inactive
58	Doa (Darkener of apricot)	SID104193687	1.26e6	1.47e6	1.11e6	1.06e6	inactive
59	Doa (Darkener of apricot)	SID104193688	1.32e6	1.51e6	1.07e6	1.08e6	inactive
60	Doa (Darkener of apricot)	SID104193689	1.31e6	1.48e6	1.13e6	1.10e6	inactive
61	Doa (Darkener of apricot)	SID104196442	5.33e5		9.35e5		inactive
